In article PMC7819943, “Rice protein-binding microarrays: a tool to detect cis-acting elements near promoter regions in rice” one finds binding signal data, which are given here for 42 sequences.

Chains of the proteins cited; added tags and fusions are not shown.
UniProt Q0JBA9, entry or part of it: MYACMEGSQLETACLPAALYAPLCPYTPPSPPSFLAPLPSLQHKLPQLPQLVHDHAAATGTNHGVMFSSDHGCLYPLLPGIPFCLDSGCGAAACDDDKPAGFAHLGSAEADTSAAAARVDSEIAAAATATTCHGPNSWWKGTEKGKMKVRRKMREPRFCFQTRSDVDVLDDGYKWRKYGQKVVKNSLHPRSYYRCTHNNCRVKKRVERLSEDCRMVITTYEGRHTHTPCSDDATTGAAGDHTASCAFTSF

Some of the results follow.

In the test the target is OsWRKY34 (Oryza sativa, UniProt Q0JBA9 1-250). As to the kind of experiment: protein-binding microarray (RPBM); PBS, 2% BSA, 51.3 ng/ul salmon testes DNA, 50 uM zinc acetate, 200 nM TF, 25 C, 1 h; high values mean tight binding. Particulars: protein: recombinant; tags: N-terminal polyhistidine and DsRed monomer fusion (pET32a); label: CyDye5-dUTP incorporated in the synthesized complementary strand; 3' TTTTT single-stranded linker to array surface; dsDNA, one strand shown. An outline of the steps:
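Binding signal is defined as the fluorescence intensity of each feature in arbitrary units, read on an Axon 4000B scanner. Transcription factors with N-terminal polyhistidine and DsRed fusions came from E. coli BL21-CodonPlus and were purified on Ni–NTA. They were incubated at 200 nM for 1 h at 25 °C on a custom Agilent array that had been made double-stranded with Cy5-dUTP, with 50 µM zinc acetate present, and the array was washed.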
For “TTCTTCTATCATGCCTAGCGCATGCTCACGAGTCAAGCCACGGAGTCACCTAGTGCAG”, the binding signal was 10400 fluorescence intensity (a.u.).

With “TTTTCTTCTCCTCGACGATCTTCTTCACGGCCGCCGGCGTCGGAGTCACCTAGTGCAG”, the binding signal was 9940 fluorescence intensity (a.u.).

On to “ATTTTGTGATTTCGTATCATTGTATTGGTTGCAGGTCATTCGGAGTCACCTAGTGCAG”, for which the binding signal is 8840 fluorescence intensity (a.u.).

For the sequence “GCGAAAATATCCCTGCCCGGCTGCCTCTCTTCCATTCCGTCGGAGTCACCTAGTGCAG”, the binding signal is 8480 fluorescence intensity (a.u.).

For the sequence “GCCAAAATAATACTATCACCTTGACTTTGCCTTGACTTACCGGAGTCACCTAGTGCAG”, the binding signal was 9720 fluorescence intensity (a.u.).

In the case of “GTGTAAATTAAATTTGGCGTTTTGTATTTGTGGAGGGACACGGAGTCACCTAGTGCAG”, the binding signal is 8960 fluorescence intensity (a.u.).

On to “ATGGTTTATCTTTTTTTTTTTAACCTGGTCATGTCATTCTCGGAGTCACCTAGTGCAG”, for which the binding signal is 10000 fluorescence intensity (a.u.).

Turning to “GGAGGTGGGGAGGGGAGGAGAGGGGAAGAAGGAAGAAAAACGGAGTCACCTAGTGCAG”, the binding signal was 13300 fluorescence intensity (a.u.).

Turning to “AACCTATTTTTACGAGATATTTAACTGTTTACTACTTTTACGGAGTCACCTAGTGCAG”, the binding signal was 8060 fluorescence intensity (a.u.).

For the sequence “TCGCCCGCCCGCGGATCGCTCTCGCGCTGCCGAATCTCAACGGAGTCACCTAGTGCAG”, the binding signal was 10000 fluorescence intensity (a.u.).

Consider “CGTGTCTTGTGTGTTTCCTGTCTCGCGAGCCTTCCACATACGGAGTCACCTAGTGCAG”, for which the binding signal is 15000 fluorescence intensity (a.u.).

Consider “GATGGGAGTAAAGTTGCTTAGTGGGTGAGAGAGTGAATACCGGAGTCACCTAGTGCAG”, for which the binding signal was 8090 fluorescence intensity (a.u.).

With “ACATGTTTGACCATTCGTCTTATTCAAAAAATTTACGTAACGGAGTCACCTAGTGCAG”, the binding signal is 8590 fluorescence intensity (a.u.).

For “GAGGAGGAGGTGGAGCTACTGGTGGTGGTGGTGGTGGTGGCGGAGTCACCTAGTGCAG”, the binding signal is 16200 fluorescence intensity (a.u.).

As for “AAACTTCCAACTTTTTCTATCACATCAACCTGTGATACACCGGAGTCACCTAGTGCAG”, the binding signal was 8520 fluorescence intensity (a.u.).

On to “CATTCAGGTTCGTTGTTTTTAGATATGTTTCTCTTTTAAACGGAGTCACCTAGTGCAG”, for which the binding signal is 10700 fluorescence intensity (a.u.).

As to “AGGGTTTGGTTGATTTTCGGATTTGGTTTGGTTTTGACGACGGAGTCACCTAGTGCAG”, the binding signal is 13300 fluorescence intensity (a.u.).

Take “GCAAGTATCCAACTCATCTCTTTCCTTATCTCAGTCAATCCGGAGTCACCTAGTGCAG”: the binding signal is 9220 fluorescence intensity (a.u.).

On to “GGTTGGTGGTGGAGGTGGTCAAGGCGGTGGTTTTGGAGCCCGGAGTCACCTAGTGCAG”, for which the binding signal was 16400 fluorescence intensity (a.u.).

With “CCCTCCTTCCACCACCGAAGCACGACCTCCACCTCGCTCTCGGAGTCACCTAGTGCAG”, the binding signal is 8810 fluorescence intensity (a.u.).

In the case of “GCCGCTCTCTGCCCATTCTCTTCTCCACGGCAAACCACCACGGAGTCACCTAGTGCAG”, the binding signal was 9340 fluorescence intensity (a.u.).

As for “GGGATGTGGCGGGCGGTGGGTCCAGGGAGGAGGAGGAGAACGGAGTCACCTAGTGCAG”, the binding signal is 15000 fluorescence intensity (a.u.).

With “AAAAAACCCATGCTACTTGTCACGTTGCCGTCTCATCTCACGGAGTCACCTAGTGCAG”, the binding signal is 9050 fluorescence intensity (a.u.).

With “GCCACATGATTTTTCATTCTAGATGGTTGGGAATGGCTTACGGAGTCACCTAGTGCAG”, the binding signal was 8560 fluorescence intensity (a.u.).

On to “TATTCGTTAGTATATATGACGCCTCTATTGATTTTATTTTCGGAGTCACCTAGTGCAG”, for which the binding signal is 8240 fluorescence intensity (a.u.).

With “GATAACTCATTTTATTTCATCCTTGTTTCATCTTACTTCCCGGAGTCACCTAGTGCAG”, the binding signal is 13800 fluorescence intensity (a.u.).

“AACACAACCTAATTCTCTCCACGCTTTCCTGTGCTCTTTCCGGAGTCACCTAGTGCAG”: the binding signal was 10900 fluorescence intensity (a.u.).

For the sequence “GTTCCTGCACCGCCCGCGCCCTAGCGTTTGCTTGCTCATCCGGAGTCACCTAGTGCAG”, the binding signal was 8670 fluorescence intensity (a.u.).

On to “GGTTTCCCATGGTCATTTACTGGCGTCGCGTCTTTTGGGGCGGAGTCACCTAGTGCAG”, for which the binding signal is 8210 fluorescence intensity (a.u.).

With “ACTATTTTTTATCTTTTGTCTAACTTACATATATGCCCCACGGAGTCACCTAGTGCAG”, the binding signal is 8470 fluorescence intensity (a.u.).

In the case of “CTAAAATACAAGACCCATTTCACGTTTGCATAGCGCTACACGGAGTCACCTAGTGCAG”, the binding signal is 8350 fluorescence intensity (a.u.).

Regarding “AGTGGTGCATTCTGTTTTTTTATATATTATTATTTGTTTACGGAGTCACCTAGTGCAG”, the binding signal is 9050 fluorescence intensity (a.u.).

“CTCTCTCGCGACTCCTCGCCACCGCCTTCGGACCACGAGACGGAGTCACCTAGTGCAG”: the binding signal is 8220 fluorescence intensity (a.u.).

Turning to “TTATTTGTTTAATTAGGACGTTCCACGTGTTTGACTATCACGGAGTCACCTAGTGCAG”, the binding signal was 8980 fluorescence intensity (a.u.).

Regarding “TCATTCCATAAGCTTGGACTAATTCGCGAGACGAATCTTTCGGAGTCACCTAGTGCAG”, the binding signal is 8240 fluorescence intensity (a.u.).

Take “GTATATTATGGTTTTGACTTATCGATATTGGTTTCTTGACCGGAGTCACCTAGTGCAG”: the binding signal is 9500 fluorescence intensity (a.u.).

With “GTACTTAGAATTCTGCAGCTGCAGCTTTCATGAAACTAAACGGAGTCACCTAGTGCAG”, the binding signal is 8190 fluorescence intensity (a.u.).

Consider “CCATGCCTGTAATTTGTCATGCCAAAACGTTCAGAATATTCGGAGTCACCTAGTGCAG”, for which the binding signal was 9960 fluorescence intensity (a.u.).

For the sequence “GGTCTATTTCTGTAATTAATTTTTCCGAGAAAGTTCTTTTCGGAGTCACCTAGTGCAG”, the binding signal is 9870 fluorescence intensity (a.u.).

Consider “ACTGTTGATGTGATCCACGAGAGGAGTCAGTGAGCACAACCGGAGTCACCTAGTGCAG”, for which the binding signal was 8350 fluorescence intensity (a.u.).

As to “AACTGTGTAGTTGGTTTTTTTCCACATTTAATATTTCATACGGAGTCACCTAGTGCAG”, the binding signal was 8210 fluorescence intensity (a.u.).

Consider “CTGAAGCCGACTCCACTCATCTACCTATATTAGTAACCCCCGGAGTCACCTAGTGCAG”, for which the binding signal was 8790 fluorescence intensity (a.u.).
